# Experimental data from PubChem BioAssay AID540303 (National Center for Advancing Translational Sciences (NCATS), 2011).
# Among all 330,000 compounds or so, about 1,000 (0.3%) were called active. The inconclusive results got no clear call from the source; some entries with a clear call stand among them for comparison. Calls follow the shape of the dose curve; as a rule, active = well fitted inhibition curve with a large enough effect; inconclusive = small, poorly fitted or top-dose-only effect; inactive = no such curve, though single readings can be large or run the other way; tested in mouse RAW 264.7 cells. Where the call is inconclusive, the potency comes from a doubtful curve fit.
# Assay: qHTS for Inhibitors of Cell Surface uPA Generation; also: nearly all actives have a fitted effect of over 55% in size
# Conditions: cell surface uPA generation assay; series mostly up to 38.3 µM
# Method in brief: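 ATP-Lite luminescence in RAW 264.7 cells after 24 h of exposure to compound, tested up to 38.3 uM final in 1:5 steps. Raised ATP reflects inhibition of uPA-dependent LF delivery to the cytoplasm.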
# Potency is read from the fitted curve at half-maximal effect.
row,Compound,Potency
1,Cc1cc(=O)oc2ccc(OCc3ccccc3)cc12,inactive
2,N/C(=N\OC(=O)N1CCOCC1)c1ccccc1,"inconclusive: 6.31 µM [inhibitor, partial curve, poor fit]"
3,O=C(CC(SCCO)c1ccc([N+](=O)[O-])cc1)c1ccco1 (stereo not drawn),"inconclusive: 7.08 µM [inhibitor, single point]"
4,COc1ccc(NC(=O)O/N=C/c2ccccc2Cl)cc1,"inconclusive: 31.6 µM [inhibitor, partial curve, poor fit]"
5,COc1ccc(CN(C(=O)c2ccco2)c2ccccc2)cc1,inactive
6,CC(OC(=O)c1ccc2c(c1)OCCO2)C(=O)c1ccccc1 (stereo not drawn),inactive
7,N#Cc1c(NC(=O)CSc2ncn[nH]2)sc2c1CCCCC2,"inconclusive: 5.01 µM [inhibitor, partial curve, poor fit]"
8,FC(F)(F)c1ccc(Cl)c(NC(=S)N/N=C/c2ccccc2Cl)c1,"inconclusive: 2.51 µM [inhibitor, partial curve, poor fit]"
9,Cc1ccc(-c2nc(-c3ccncc3)no2)c(Cl)c1,"inconclusive: 2.24 µM [inhibitor, full curve]"
10,CCC1CCCCN1CCCNC(=O)c1cc2c(Cl)nc3ccccc3c2s1 (stereo not drawn),"inconclusive: 28.2 µM [inhibitor, single point]"
11,COCC(=O)Nc1nc(-c2ccc([N+](=O)[O-])cc2)cs1,"inconclusive: 1.58 µM [inhibitor, full curve, poor fit]"
12,O=C(c1cc(Cl)nc2ccccc12)N1CCc2ccccc2C1,"inconclusive: 31.6 µM [inhibitor, partial curve, poor fit]"
13,C=C(C)COc1ccc(-c2n[nH]c(C)c2-c2ccc(Br)cc2)c(O)c1,"inconclusive: 28.2 µM [inhibitor, single point]"
14,Cc1c(C(=O)Nc2nnc(C3CC3)s2)oc2ccccc12,inactive
15,Cc1cc(C)c2cc(CN(Cc3cccnc3)C(=O)c3ccc(F)cc3)c(Cl)nc2c1,inactive
16,CCOC(=O)c1c(NC(C)=O)sc2c1CCC(C=O)=C2Sc1ccccc1,"inconclusive: 7.08 µM [inhibitor, single point]"
17,COc1ccccc1N1CCN(C(=O)c2cn(-c3ccccc3)nc2-c2cccnc2)CC1,"inconclusive: 15.8 µM [inhibitor, single point]"
18,CSc1cccc(NC(=O)c2nnn(CC(=O)Nc3cc(C)cc(C)c3)c2N)c1,inactive
19,COc1ccc(C(=O)Nc2nc3ccccc3s2)cc1,"inconclusive: 10 µM [inhibitor, partial curve, poor fit]"
20,CCN1C(=O)C(=O)c2cc(C)ccc21,"inconclusive: 6.31 µM [inhibitor, partial curve, poor fit]"
21,CS(=O)(=O)c1ccc2nc(NC(=O)c3ccc(NS(=O)(=O)c4ccc(F)c(F)c4)cc3)sc2c1,inactive
22,COc1ccc(NC(=O)CSc2sc3c(O)cc(=O)[nH]c3c2C#N)c(OC)c1,inactive
23,O=C1C(=O)N(CCS(=O)(=O)c2ccccc2)c2ccc(Cl)cc21,"inconclusive: 11.2 µM [inhibitor, single point]"

# Gathered by group, those above with a nitro group on carbon.
row,Compound,Potency
3,O=C(CC(SCCO)c1ccc([N+](=O)[O-])cc1)c1ccco1 (stereo not drawn),"inconclusive: 7.08 µM [inhibitor, single point]"
11,COCC(=O)Nc1nc(-c2ccc([N+](=O)[O-])cc2)cs1,"inconclusive: 1.58 µM [inhibitor, full curve, poor fit]"

# (list continues)

row,Compound,Potency
1,O=Cc1ccccc1OCCCOc1cccc2cccnc12,"inconclusive: 5.62 µM [inhibitor, partial curve, poor fit]"
2,CSCCNC(=O)c1ccc(C(C)(C)C)cc1,inactive
3,COc1ccccc1N1CCN(C(=O)c2cccc(S(=O)(=O)NCc3cccnc3)c2)CC1,"inconclusive: 3.98 µM [inhibitor, partial curve, poor fit]"
4,CCN1C(=O)[C@H]2[C@H]3CN=C(SCc4ccc(C)cc4)N3[C@@](Cc3ccccc3)(C(=O)OC)[C@H]2C1=O,"inconclusive: 31.6 µM [inhibitor, single point]"
5,CC(C)/C=C(/C(=O)c1ccc(Cl)cc1Cl)n1cncn1,"inconclusive: 5.62 µM [inhibitor, partial curve, poor fit]"
6,COC(=O)C1CCN(C(=O)c2cc(-c3ccc(Cl)s3)nc3ccccc23)CC1,active: 1.78 µM
7,CC(C(=O)NC1CCCC1)N1CCN(S(=O)(=O)c2ccc(C(C)(C)C)cc2)CC1 (stereo not drawn),"inconclusive: 2.82 µM [inhibitor, partial curve]"
8,O=C1C(CSCc2ccccc2)NC(=S)N1c1ccccc1 (stereo not drawn),inactive
9,N/C(Cc1ccc([N+](=O)[O-])cc1)=N\OC(=O)c1ccco1,"inconclusive: 11.2 µM [inhibitor, single point]"
10,COc1ccc(C2CC(c3cccs3)=Nc3ccccc3S2)cc1 (stereo not drawn),"inconclusive: 11.2 µM [inhibitor, partial curve, poor fit]"
11,O=C(N/N=C\c1ccc(S(=O)(=O)O)o1)c1ccc2c(c1)OCO2,"inconclusive: 11.2 µM [inhibitor, partial curve]"
12,Cn1ccnc1SCC(=O)Nc1ccc(SC(F)F)cc1,"inconclusive: 14.1 µM [inhibitor, partial curve, poor fit]"
13,COc1ccc(N2CCN(C(=O)c3ccc(CS(=O)(=O)c4ccccc4C)o3)CC2)cc1,inactive
14,Cc1ccc2nc(NC(=O)c3ccc(Br)o3)sc2c1,"inconclusive: 4.47 µM [inhibitor, partial curve]"
15,Cc1noc(C)c1COc1cccc(C(=O)OC(C)C(=O)Nc2ccc3c(c2)OCO3)c1 (stereo not drawn),"inconclusive: 8.91 µM [inhibitor, partial curve, poor fit]"
16,CC1(C)Cc2nc3sc4c(SCC(=O)O)ncnc4c3cc2CO1,active: 2.24 µM
17,CCOc1ccc(-n2c(C)c(C(C)=O)c3cc(OC(C)=O)ccc32)cc1,inactive
18,Cc1cccc(C)c1NC(=O)Cn1cc(C=O)c2ccccc21,"inconclusive: 5.62 µM [inhibitor, single point]"
19,O=C(Cn1cncn1)NCCC(c1ccccc1)c1ccccc1,inactive
20,COC(=O)N/N=C/c1sc(N2CCCCC2)nc1-c1cccs1,inactive
21,CCn1c(/C=C/c2ccc(F)cc2)nc2ccccc2c1=O,"inconclusive: 14.1 µM [inhibitor, partial curve, poor fit]"
22,O=C(CSc1nnc(-c2cccnc2)o1)c1cc2ccccc2oc1=O,inactive
23,COc1ccc(-c2noc(=O)n2Cc2ccc(C#N)cc2)cc1,inactive

# For reference, some entries already given:
row,Compound,Potency
13,COc1ccc(N2CCN(C(=O)c3ccc(CS(=O)(=O)c4ccccc4C)o3)CC2)cc1,inactive
14,Cc1ccc2nc(NC(=O)c3ccc(Br)o3)sc2c1,"inconclusive: 4.47 µM [inhibitor, partial curve]"

# Carrying on:

row,Compound,Potency
1,CCOc1ccccc1CN1CCCC(C(=O)Nc2cccc(-n3cccn3)c2)C1 (stereo not drawn),"inconclusive: 12.6 µM [inhibitor, single point]"
2,COc1ccc(/C=C/C(=O)c2ccc(OC)cc2O)cc1,"inconclusive: 14.1 µM [inhibitor, single point]"
3,CC(=O)N1CCN(c2ccc(NCc3ccc(F)cc3)cc2)CC1,"inconclusive: 10 µM [inhibitor, partial curve, poor fit]"
4,COc1ccccc1NS(=O)(=O)c1ccc(C(=O)NCc2ccncc2)cc1,"inconclusive: 0.0089 µM [inhibitor, full curve, poor fit]"
5,Cc1ccc(/C=C(\C#N)C(=O)Nc2c(C)cccc2C)s1,inactive
6,COc1cc(Cl)c(C)cc1NC(=O)CN1CCN(C(=O)C2CC2)CC1,"inconclusive: 20 µM [inhibitor, single point]"
7,Nc1nc(Nc2ccccc2)nc(N2CCCC2)c1[N+](=O)[O-],"inconclusive: 10 µM [inhibitor, single point]"
8,COc1c2c(c(C)c3c1C(=O)OC3)O[C@@]1(C)CC[C@@]3(O)C(C)(C)OC(=O)CC[C@]3(C)[C@H]1C2,"inconclusive: 5.01 µM [inhibitor, partial curve, poor fit]"
9,O=C(Nc1ccncc1)Nc1cccc(C(F)(F)F)c1,"inconclusive: 7.94 µM [inhibitor, partial curve]"
10,O=C(NCc1ccccc1)c1onc(CS(=O)(=O)c2ccccn2)c1C(=O)NCc1ccccc1,"inconclusive: 0.0224 µM [inhibitor, full curve, poor fit]"
11,C/C(=N\NC(=S)NC(C)C)c1ccc2c(c1)OCCO2,inactive
12,COc1ccc2[nH]c3c(c2c1)CCN1C(=O)C(CC(=O)NCCC2=CCCCC2)C[C@H](C(=O)N2CCCCC2)[C@@]31C (stereo partly drawn),"inconclusive: 11.2 µM [inhibitor, partial curve, poor fit]"
13,O=C1Nc2ccccc2C1=Nc1ccc(Br)cc1,"inconclusive: 10 µM [inhibitor, single point]"
14,CC(=O)Nc1cc(OC(C)=O)c2nonc2c1OC(C)=O,"inconclusive: 8.91 µM [inhibitor, partial curve, poor fit]"
15,Cc1cc(NC(=O)c2ccccc2C)ccc1NC(=O)c1ccccc1Cl,"inconclusive: 8.91 µM [inhibitor, single point]"
16,CC1=Nc2cc(C(=O)NCC3CCCO3)ccc2Sc2ccc(Br)cc21 (stereo not drawn),"inconclusive: 2.82 µM [inhibitor, full curve, poor fit]"
17,COc1ccc(CCN2CCC(Nc3nc4ccccc4n3Cc3ccc(F)cc3)CC2)cc1,"inconclusive: 1.26 µM [inhibitor, full curve, poor fit]"
18,CCOC(=O)c1cnn2c(C)cc(-c3ccc(F)cc3)nc12,inactive
19,Cc1nnc(SCc2cnc(-c3ccc(C(C)C)cc3)s2)n1C,inactive
20,COc1ccccc1NC(=O)C(C)OC(=O)/C=C/c1ccc2ccccc2n1 (stereo not drawn),"inconclusive: 7.94 µM [inhibitor, partial curve, poor fit]"
21,COc1ccccc1NC(=O)CCn1c(=O)c2cccn2c2ccccc21,inactive
22,O=C(N/N=C/c1cccc(NC(=O)c2ccc(Cl)cc2)c1)c1ccc(O)cc1,"inconclusive: 22.4 µM [inhibitor, single point]"
